Laboratory results: the supplement of paper PMC3334620
Over roughly 33,000 sequences, “E-score (-0.5 to 0.5)” has its median near -8e-05; the highest 2% begin near 0.23. This is one part of the list.

target: T1, Nrg2 (UniProt P38082); assay: PBM E-score (8-mer binding enrichment) (E-score (-0.5 to 0.5)); higher = stronger / more preferred TF binding; details: protein concentration: 100 nM; construct: GST-full length
T1 sequence: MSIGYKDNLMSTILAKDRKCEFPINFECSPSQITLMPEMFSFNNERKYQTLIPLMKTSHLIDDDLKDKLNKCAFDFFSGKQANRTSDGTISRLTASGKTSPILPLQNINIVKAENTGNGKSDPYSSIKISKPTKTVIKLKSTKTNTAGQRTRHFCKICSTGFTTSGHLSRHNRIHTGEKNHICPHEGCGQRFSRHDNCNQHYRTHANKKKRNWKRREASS
In short: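 The E-score, a modified Wilcoxon-Mann-Whitney statistic, was computed by the Universal PBM Analysis Suite for every ungapped eight-base word pooled with its reverse complement. Scans behind it were normalised with masliner after bound GST-tagged yeast transcription factors were detected with fluorescent anti-GST. The proteins, at about 100-200 nM, had been applied to universal all-10-mer Agilent arrays made double-stranded by primer extension.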

Row | Sequence | PBM E-score
1 | TAACGAGA | 0.0391
2 | GCACCACA | -0.00115
3 | CCGCCTCC | -0.336
4 | AACTTACT | -0.128
5 | GGAATGCC | 0.11
6 | ACGCCAGG | -0.0644
7 | CAGCTAAC | -0.187
8 | CCGATGTC | 0.00418
9 | TCATCTCA | 0.191
10 | ATATCTTA | 0.12
11 | ACACTGGG | -0.0843
12 | GCCGGCAA | 0.123
13 | ACCTAGGA | 0.0462
14 | CTATTGTA | 0.133
15 | AAAGGGAG | -0.186
16 | CGCTTGTA | 0.199
17 | GAGTCACC | -0.167
18 | AACACCAT | 0.0524
19 | ACAAAAAT | 0.159
20 | ATCTTAGC | -0.0494
21 | AGAAGTGA | -0.0836
22 | CGGCGTAC | -0.104
23 | GCATTAAA | 0.136
24 | ATAACGCG | 0.173
25 | AACGCAAA | 0.112

Part of the list above, reformatted.
Row	Sequence	PBM E-score
4	AACTTACT	-0.128
5	GGAATGCC	0.11
6	ACGCCAGG	-0.0644
7	CAGCTAAC	-0.187

Copied from the list.
Under PBM E-score, AAAGGGAG shows -0.186
Under PBM E-score, GCACCACA shows -0.00115

The results go on:

Row | Sequence | PBM E-score
26 | CCGAAGGC | -0.274
27 | ACTACTCG | 0.187
28 | AGATGGCC | -0.11
29 | GATAGCGC | 0.0725
30 | GGATGAAA | 0.196
31 | CTTCTAGC | -0.221
32 | CATGGAAC | 0.0476
33 | CTCAAGAA | -0.00391
34 | CCACTGCC | 0.0288
35 | AAGCCGCC | -0.219
36 | AGAGTACC | 0.132
37 | ACTAAGGG | 0.0502
38 | AATACCTC | 0.0799
39 | CTTCTCTA | -0.137
40 | AGCAGTTA | -0.0173
41 | GATCTGCA | -0.0673
42 | TAATTTAA | 0.0924
43 | AGAACCAT | -0.0163
44 | CATAGTCC | 0.0437
45 | TCTTCTAA | -0.0126
46 | ACGCAAGC | 0.0098
47 | ATGATCAC | 0.156
48 | AAACCTAC | 0.0887
49 | ACCCGCAG | 0.0663
50 | ACGCCGCT | -0.0596

Row | Sequence | PBM E-score
51 | CACCGTGA | -0.113
52 | GGTCATTA | -0.088
53 | AACATATT | 0.0545
54 | ACGGAAGT | -0.0291
55 | CGGATGTC | 0.00798
56 | ACATCAGG | 0.153
57 | CCGTCACC | -0.151
58 | ATGCCATA | 0.0783
59 | AACGTTCT | 0.129
60 | AGAGGGCT | -0.242
61 | ATTTAGGG | 0.141
62 | AGGATACT | -0.068
63 | ACGCATTA | -0.0837
64 | ACCAGCAT | 0.0206
65 | AGAATAGA | 0.0121
66 | TCAGTTCA | 0.0522
67 | ATTGTTTG | 0.18
68 | ATGGGCAA | 0.0718
69 | TGGGCACA | -0.0208
70 | ACTTGCAA | 0.116
71 | AAGGTAAC | 0.129
72 | AACCCTGT | 0.244
73 | GTGTGAAC | 0.0759
74 | GATTGCTA | -0.159
75 | AGCCCTTG | -0.0993

Row | Sequence | PBM E-score
76 | TAGATCGA | 0.0965
77 | GGGAGAAC | -0.189
78 | CCGATGGC | -0.0549
79 | CACTATCC | -0.02
80 | AAAAAAGC | 0.00716
81 | GATCGGCA | -0.0228
82 | TGCTAAAA | -0.17
83 | CAATTCTG | -0.0606
84 | CGCGACCC | 0.0836
85 | TCGACAGA | -0.105
86 | AATGGTCA | 0.0742
87 | GCTGAATA | 0.141
88 | GCTGGCCA | 0.0316
89 | ACAGACAA | 0.224
90 | CCTACTTA | 0.0393
91 | AAGTCTCT | -0.312
92 | AGACGGGC | -0.088
93 | CAATGTGA | 0.113
94 | GAGCTCAC | 0.0363
95 | ATCTACAG | 0.135
96 | TATGCGGA | 0.0715
97 | ACGGATTC | 0.0174
98 | CGCACGCA | -0.0894
99 | AGCTCGGA | -0.107
100 | GTATTTCA | 0.0415

Part of the list above in another layout.
CACTATCC
  PBM E-score: -0.02
AAAAAAGC
  PBM E-score: 0.00716
GATCGGCA
  PBM E-score: -0.0228
TGCTAAAA
  PBM E-score: -0.17

Following part

Row | Sequence | PBM E-score
101 | CAGGGACA | 0.371
102 | CACCCCAC | 0.217
103 | AGTGTTGG | 0.077
104 | TAGGAAGA | -0.255
105 | CGAGTACG | -0.117
106 | CAACTACG | 0.0137
107 | CGTTGTTA | 0.092
108 | GAGGCGCC | -0.0536
109 | CGCTGGGA | -0.178
110 | AAATATCG | 0.0888
111 | TCTGTAAA | -0.162
112 | ACCAAGGT | -0.0285
113 | ACCATCCT | -0.0947
114 | TGCTAGAA | -0.166
115 | CTGAGGCC | -0.0663
116 | GTCTCCTA | -0.163
117 | GATAATGC | 0.121
118 | ATTAACTG | 0.203
119 | GATCGGAA | -0.0186
120 | GAATAAGC | -0.0376
121 | ACAAAGAA | 0.0391
122 | AATCAGCT | 0.164
123 | CAAACCCC | 0.00373
124 | CGTGACGC | -0.0911
125 | AACAGCGT | -0.101

Row | Sequence | PBM E-score
126 | CGAGGCAA | 0.103
127 | CGAATAAA | 0.153
128 | TCACTCGA | 0.0272
129 | ATCGGTAA | -0.0755
130 | AGGCACAG | -0.0629
131 | AGCCTTGA | -0.061
132 | CTAGGGTC | 0.188
133 | CACGGGCG | -0.0461
134 | CAGACACA | 0.0428
135 | AGTTGCTA | 0.109
136 | GGAGGCAC | -0.246
137 | CACCTGTA | -0.0981
138 | ACTTACCG | -0.019
139 | ATACAAAG | 0.0955
140 | ACACAACG | 0.0761
141 | ATCGGTGC | 0.0985
142 | AATCATTC | 0.0508
143 | AACTCGCC | 0.124
144 | ACTAGACC | 0.17
145 | CGAGGGCA | 0.103
146 | GCACACGA | -0.077
147 | ATCGCTAA | -0.106
148 | AGACCGAA | 0.0745
149 | GAATAGAA | 0.193
150 | CTGCTAAG | -0.216

Row | Sequence | PBM E-score
151 | GATATCGC | 0.168
152 | ACGCATGG | -0.243
153 | ACGTACGG | 0.00104
154 | GTGGGTCA | -0.0425
155 | AAGGCATA | -0.00967
156 | AAGGCAGT | 0.0607
157 | AAGCCGTA | -0.0199
158 | ATAAGCCC | -0.166
159 | GGATACGA | -0.106
160 | CTTCGTAA | -0.0449
161 | CCTAATAA | 0.00129
162 | CATCTAGG | 0.0834
163 | ATATACGG | 0.0407
164 | CCCCAAAA | 0.032
165 | ATGATAAA | 0.189
166 | CCTCAGGA | 0.00996
167 | ATCTAGAA | -0.0175
168 | CCTTCTGA | -0.0225
169 | ACTCTTTC | -0.157
170 | ACTGGGTG | -0.0765
171 | GCTCGCAA | 0.0783
172 | AAAACCCA | 0.148
173 | CGCAGGGA | 0.17
174 | CAGGCCTG | 0.115
175 | ACTCGATG | 0.188

Row | Sequence | PBM E-score
176 | AGTGTAGA | -0.15
177 | TACCCCTA | 0.173
178 | GGTCGGAC | -0.0249
179 | CGCAAGCG | -0.0991
180 | AGCCGTTC | -0.15
181 | TAGATCTA | 0.0825
182 | ATATCAAA | 0.096
183 | CTGCATTC | 0.115
184 | AAGTCGTC | -0.185
185 | CAACACAC | 0.118
186 | GACAGAGC | -0.102
187 | AGAGGGTC | -0.0416
188 | AGGGAAAA | 0.0653
189 | AAAAAGGG | -0.031
190 | GCTACCCA | -0.152
191 | AACTGGGA | 0.0724
192 | CATTACTA | 0.0965
193 | ATACGCCC | -0.19
194 | GAGGGGGC | -0.352
195 | CAAGCAGC | 0.046
196 | ATCCACGA | 0.124
197 | AGGTTCTA | -0.0711
198 | ATAAGAAG | 0.0507
199 | ACAAGAGT | 0.00382
200 | ATGTTCAG | -0.0215

Row | Sequence | PBM E-score
201 | CTGACACA | -0.0539
202 | CACTGTAA | 0.0516
203 | AGCAACAG | -0.0597
204 | CGCGTCTA | 0.0365
205 | GCTCCGGA | -0.138
206 | ACGGTCTA | -0.126
207 | TGCTTACA | -0.0126
208 | GCACGGAC | 0.147
209 | ACGTATTG | -0.0152
210 | ACCGGAGG | -0.154
211 | AGACCCCA | 0.219
212 | ACGGATCG | -0.225
213 | ACAGAGGA | 0.00257
214 | TGAGCCCA | 0.105
215 | ATGAGACG | -0.0393
216 | AGGATCGG | -0.147
217 | AGACCCGC | 0.0763
218 | TAAATCAA | 0.036
219 | GATCAGCA | 0.035
